Results as given in PMC6980355 (Journal of medicinal chemistry, 2019).

System: P. aeruginosa INV(muxA-mexZ) mutant (efflux-compromised background)
Type: cell-based
Conditions: data not shown

O=C(O)c1cn(C2CC2)c2cc(N3CCNCC3)c(F)cc2c1=O [ciprofloxacin, reference compound]
effect of muxA-mexZ inversion on potency: reduced the potency
